For test [1], the target named is C-terminal domain of the Salmonella enterica PduO protein (PduOC) (Salmonella enterica subsp. enterica serovar Typhimurium). Kind of test: crystal structure; PduOC co-crystallized with heme; 0.1 M magnesium formate, 15% (w/v) PEG 3350; protein in 20 mM Tris/HCl pH 7; space group P21; both purified.
Test [2] shares this target. Put plainly: SDS-PAGE of unboiled sample; 15 ug of isolated His-tag-free PduOC, unboiled and boiled, stained with PageBlue; both purified.

These are yes or no findings as the source states them, for the method shown. Some results given as binding are weak or reduced against the parent protein; the word gives no strength.

Drawing on publication PMC4923194, “The Crystal Structure of the C-Terminal Domain of the Salmonella enterica PduO Protein: An Old Fold with a New Heme-Binding Mode” (Frontiers in Microbiology, 2016), this text covers binding for one substance.

With “C-terminal domain of the Salmonella enterica PduO protein (PduOC) (from UniProt A0A0F6B395 194-336) (domain or fragment)”, the binding result in test [1] and in test [2] was “binds” in each case.
